Measurements from publication PMC9535016.
Results are given in words; binding and its absence hold for the method and conditions named. In cells and extracts the contact can be indirect. Some results given as binding are weak or reduced against the parent protein; the word gives no strength. For some of these results: Where a sequence is shown, tags or fusion partners need not be part of it.

Sequences of proteins named here, by UniProt entry; tags and fusion partners are left off. A change or cut given only in a name is not applied to a line headed by its entry.
UniProt Q9H6L5: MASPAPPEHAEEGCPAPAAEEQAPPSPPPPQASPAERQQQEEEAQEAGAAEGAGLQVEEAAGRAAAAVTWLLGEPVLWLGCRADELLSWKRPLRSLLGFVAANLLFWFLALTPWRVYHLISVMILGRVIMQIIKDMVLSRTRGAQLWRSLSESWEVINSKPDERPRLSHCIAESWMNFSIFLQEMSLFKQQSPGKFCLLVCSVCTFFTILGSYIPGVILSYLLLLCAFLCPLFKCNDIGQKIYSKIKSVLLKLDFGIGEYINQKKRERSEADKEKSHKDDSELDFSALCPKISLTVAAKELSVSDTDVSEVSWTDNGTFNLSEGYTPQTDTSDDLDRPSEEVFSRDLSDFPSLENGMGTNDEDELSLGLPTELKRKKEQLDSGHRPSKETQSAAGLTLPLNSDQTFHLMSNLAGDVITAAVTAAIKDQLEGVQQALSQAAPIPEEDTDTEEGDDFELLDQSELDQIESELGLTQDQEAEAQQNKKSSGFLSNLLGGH

What was measured:
[1] = biological target: T1, HA-tagged O-GlcNAc transferase (OGT) (human (from the printed RefSeq NM_181672)) (UniProt O15294); assay: co-IP; human NP cells cotransfected with HA-OGT and Flag-FAM134B; whole-cell lysates immunoprecipitated with anti-Flag or anti-HA antibodies, blotted with anti-Flag and anti-HA
T1 sequence: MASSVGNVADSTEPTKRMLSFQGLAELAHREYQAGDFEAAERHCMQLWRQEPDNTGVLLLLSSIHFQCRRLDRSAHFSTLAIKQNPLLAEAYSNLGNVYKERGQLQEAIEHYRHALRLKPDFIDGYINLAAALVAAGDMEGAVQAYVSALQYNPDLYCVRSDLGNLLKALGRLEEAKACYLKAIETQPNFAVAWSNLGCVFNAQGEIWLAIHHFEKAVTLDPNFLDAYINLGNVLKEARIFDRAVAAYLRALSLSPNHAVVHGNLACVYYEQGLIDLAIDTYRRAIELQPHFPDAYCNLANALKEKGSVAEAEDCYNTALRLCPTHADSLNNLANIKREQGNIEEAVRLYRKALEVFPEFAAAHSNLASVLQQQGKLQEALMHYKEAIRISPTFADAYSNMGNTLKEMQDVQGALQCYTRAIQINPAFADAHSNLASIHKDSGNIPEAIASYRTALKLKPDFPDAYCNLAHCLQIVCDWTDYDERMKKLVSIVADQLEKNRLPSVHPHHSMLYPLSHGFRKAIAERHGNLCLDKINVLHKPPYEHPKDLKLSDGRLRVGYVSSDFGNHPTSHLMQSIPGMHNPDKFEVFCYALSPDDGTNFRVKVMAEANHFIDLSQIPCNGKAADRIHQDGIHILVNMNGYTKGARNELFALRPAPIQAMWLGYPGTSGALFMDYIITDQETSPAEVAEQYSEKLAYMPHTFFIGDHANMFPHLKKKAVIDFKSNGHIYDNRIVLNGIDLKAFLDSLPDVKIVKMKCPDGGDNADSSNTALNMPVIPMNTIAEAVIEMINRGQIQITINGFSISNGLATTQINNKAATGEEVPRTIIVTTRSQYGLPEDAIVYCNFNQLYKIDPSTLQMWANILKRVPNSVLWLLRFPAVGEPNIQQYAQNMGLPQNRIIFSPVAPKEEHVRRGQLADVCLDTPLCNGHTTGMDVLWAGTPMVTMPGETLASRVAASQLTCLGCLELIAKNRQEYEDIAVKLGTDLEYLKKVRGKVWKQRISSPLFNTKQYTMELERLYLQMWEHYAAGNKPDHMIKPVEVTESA

[2] = biological target: T2, endogenous O-GlcNAc transferase (OGT) (human (endogenous in NP cells)) (UniProt O15294); assay: co-IP; endogenous proteins in human NP cells, control or nutrient deprivation (ND); reciprocal immunoprecipitation with anti-OGT and anti-FAM134B antibodies, blotted with anti-OGT and anti-FAM134B
T2 sequence: T1 sequence

[3] = biological target: Flag-tagged FAM134B (family with sequence similarity 134, member B) (human (from the printed RefSeq NM_001034850)) (UniProt Q9H6L5); assay: co-IP; human NP cells cotransfected with HA-OGT and Flag-FAM134B; whole-cell lysates immunoprecipitated with anti-Flag or anti-HA antibodies, blotted with anti-Flag and anti-HA
[4] = biological target: endogenous FAM134B (human (endogenous in NP cells)) (UniProt Q9H6L5); assay: co-IP; endogenous proteins in human NP cells, control or nutrient deprivation (ND); reciprocal immunoprecipitation with anti-OGT and anti-FAM134B antibodies, blotted with anti-OGT and anti-FAM134B

Flag-tagged FAM134B (family with sequence similarity 134, member B) (from UniProt Q9H6L5-1 1-497)
binding [1]: binds

endogenous FAM134B (from UniProt Q9H6L5 1-497)
binding [2]: binds

B1: HA-tagged O-GlcNAc transferase (OGT) (enzyme, UniProt O15294-1 1-1046)
chain: T1 sequence
binding [3]: binds

B2: endogenous O-GlcNAc transferase (OGT) (enzyme, UniProt O15294 1-1046)
chain: T1 sequence
binding [4]: binds
